Results reported in article PMC7673134.

Amino acid sequences for entries named in this document (tags omitted).
UniProt Q94AH6: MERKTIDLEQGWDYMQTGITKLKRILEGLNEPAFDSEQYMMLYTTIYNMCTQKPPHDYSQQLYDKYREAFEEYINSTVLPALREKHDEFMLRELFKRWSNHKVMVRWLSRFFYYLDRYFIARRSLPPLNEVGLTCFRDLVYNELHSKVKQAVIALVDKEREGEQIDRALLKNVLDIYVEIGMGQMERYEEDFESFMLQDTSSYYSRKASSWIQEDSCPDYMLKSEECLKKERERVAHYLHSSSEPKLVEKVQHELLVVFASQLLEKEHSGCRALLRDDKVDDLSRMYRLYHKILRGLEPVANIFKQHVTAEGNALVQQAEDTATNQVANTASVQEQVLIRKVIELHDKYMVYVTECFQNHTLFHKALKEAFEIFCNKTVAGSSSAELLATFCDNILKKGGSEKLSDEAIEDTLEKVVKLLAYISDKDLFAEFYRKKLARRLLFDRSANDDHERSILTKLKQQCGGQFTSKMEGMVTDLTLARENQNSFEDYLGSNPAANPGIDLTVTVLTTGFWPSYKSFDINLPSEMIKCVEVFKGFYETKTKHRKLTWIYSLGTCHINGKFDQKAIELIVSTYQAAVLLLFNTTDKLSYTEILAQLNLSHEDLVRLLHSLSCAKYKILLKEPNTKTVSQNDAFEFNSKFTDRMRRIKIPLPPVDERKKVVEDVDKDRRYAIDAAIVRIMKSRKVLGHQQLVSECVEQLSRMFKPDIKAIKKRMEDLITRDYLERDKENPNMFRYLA

B1: CAND1 (At2g02560) (protein, UniProt Q8L5Y6 1-1219)
chain: MANLQVSGILEKFQMTGKDKDYRYMATSDLLNELNKDSFKIDLDLEVRLSSIILQQLDDVAGDVSGLAVKCLAPLVKKVGEERIVEMTNKLCDKLLHGKDQHRDTASIALRTVVAQIAPTLAPSILVTLTPQMIGGISGQGMSSGIKCECLEIMCDVVQKYGSLMTDDHEKLLNTLLLQLGCNQATVRKKTVTCIASLASSLSDDLLAKATVEVVKNLSNRNAKSEITRTNIQMIGALCRAVGYRFGTHLGNTVPVLINYCTSASENDEELREYSLQALESFLLRCPRDISPYCDEILNLTLEYISYDPNFTDNMEEDTDNETLEDEEDDESANEYTDDEDASWKVRRAAAKCLAGLIVSRSEMLTKVYQEACPKLIDRFKEREENVKMDVFNTFIDLLRQTGNVTKGQTDTDESSPKWLLKQEVSKIVKSINRQLREKSVKTKVGAFSVLRELVVVLPDCLADHIGSLVPGIERALNDKSSTSNLKIEALVFTKLVLASHAPPVFHPYIKALSSPVLAAVGERYYKVTAEALRVCGELVRVVRPSTAGMGFDFKPFVHPIYNAIMSRLTNQDQDQEVKECAITCMGLVISTFGDQLRAELPSCLPVLVDRMGNEITRLTAVKAFSVIATSPLHINLSCVLDHLIAELTGFLRKANRVLRQATLITMNTLVTAYGDKIGSEAYEVILVELSSLISVSDLHMTALALELCCTLMTGKSCSENISLAVRNKVLPQALTLVKSPLLQGQALLDLQKFFEALVYHANTSFYTLLESLLSCAKPSPQSGGVPKQALYSIAQCVAVLCLAAGDKNCSSTVKMLMEILKDDSGTNSAKQHLALLSLGEIGRRKDLSAHAGIETIVIESFQSPFEEIKSAASYALGNIAVGNLSNYLPFILDQIDNQQKKQYILLHSLKEVIVRQSVDKADFQNSSVEKILALLFNHCESEEEGVRNVVAECLGKMALIEPEKLVPALQVRTTSPAAFTRATVVTAVKYSVVERPEKLDEIIFPQISSFLMLIKDGDRHVRRAAVSALSTFAHYKPNLIKGLLPELLPLLYDQTVIKKELIRTVDLGPFKHVVDDGLELRKAAFECVFTLVDSCLDQVNPSSFIVPFLKSGLEDHYDLKMLCHLILSLLADKCPSAVLAVLDSLVEPLHKTISFKPKQDAVKQEHDRNEDMIRSALRAISSLDRINGVDYSHKFKGLMGDMKRSVPLWEKFQTIRNE

Legend:
[1] = biological target: Col-SSF414N-GFP (A. thaliana) (UniProt F4IL32); assay: affinity purification with mass spectrometry; protein pulldown of GFP-tagged SSF from Col-SSF414N-GFP and Col-SSF414D-GFP transgenic plants; SDS-PAGE gel pieces, trypsin, nanoLC-MS/MS
[2] = biological target: Col-SSF414D-GFP (A. thaliana); assay: as above

Molecule | binding [1] | binding [2]
CUL1 (At4g02570) (from UniProt Q94AH6 1-738) | binds | 
B1 | binds | binds

These are yes or no findings as the source states them, for the method shown. In cells and extracts the contact can be indirect. A yes stands for co-enrichment or nearness to the bait. Other partners may have been found.
